PubChem BioAssay AID686938 – Drosophila RNAi Screening Center, 2013

Assay: 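Knock-downs reducing store-operated calcium influx in Drosophila cells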 (primary screen)
Cell system: Drosophila S2R+ cells
Knock-down reagent: long dsRNA against Drosophila genes, about 0.25 µg dsRNA per well, roughly 10,000 cells
Timing: 5 days of knock-down before the calcium assay
Challenge: thapsigargin (SERCA pump blocker) to empty calcium stores; entry signal taken 4 min after adding it
Measurement: 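Per-well fluo-4 fluorescence in two replicates, unnormalised, measured in resting cells and 4 min after store depletion by the SERCA blocker thapsigargin; ratio of the two present in few wells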
Direction: calcium entry signal: higher = stronger calcium signal after store depletion; entry to resting ratio: higher = more calcium entry relative to resting level; resting calcium signal: higher = higher resting calcium signal
Hit rule: 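Hit if the duplicate-averaged plate z-score for entry over resting signal is under −3; wells with weak total dye signal (Fmax z < −2) or more than 5 off-targets removed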
Meaning of the calls: active = strongly reduced calcium entry; inactive = no strong reduction
In all, the deposit lists about 23,000 reagents; shown is an unselected part of those that have a named target and a result. Of all reagents, 75 (0.33%) are marked active. 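Raw plate signals without normalisation; calls rest on plate z-scores that were not deposited; ratio present for only 364 wells.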 The numbers tell different reagents against one gene apart. Not given: the dose of the treatment.

gene	reagent no.	calcium entry signal, replicate 1 (fluorescence units)	calcium entry signal, replicate 2 (fluorescence units)	entry to resting ratio	resting calcium signal, replicate 1 (fluorescence units)	resting calcium signal, replicate 2 (fluorescence units)	activity call
CG12971	1	3.12e7	3.96e7		1.53e7	1.69e7	inactive
bma	1	2.76e7	4.19e7		1.44e7	1.73e7	inactive
bma	2	2.91e7	4.34e7		1.58e7	2.07e7	inactive
CG14777	1	4.19e7	4.60e7	2	2.04e7	1.89e7	inactive
Prx2	1	4.45e7	4.99e7		2.11e7	2.54e7	inactive
Cyp6a18	1	4.00e7	5.27e7		1.98e7	2.04e7	inactive
Nxt1	1	2.84e7	3.27e7		1.73e7	1.92e7	inactive
Prp18	1	2.15e7	1.89e7		1.19e7	1.09e7	inactive
CG7173	1	2.67e7	3.65e7		1.40e7	2.72e7	inactive
CG7173	2	3.64e7	3.35e7		2.04e7	1.57e7	inactive
CG17571	1	2.73e7	3.74e7		1.26e7	1.58e7	inactive
CG17571	2	4.29e7	4.87e7		2.03e7	2.16e7	inactive

2 entries already listed, ordered by “calcium entry signal, replicate 2 (fluorescence units)”, highest first:
gene	reagent no.	calcium entry signal, replicate 1 (fluorescence units)	calcium entry signal, replicate 2 (fluorescence units)	entry to resting ratio	resting calcium signal, replicate 1 (fluorescence units)	resting calcium signal, replicate 2 (fluorescence units)	activity call
Cyp6a18	1	4.00e7	5.27e7		1.98e7	2.04e7	inactive
Nxt1	1	2.84e7	3.27e7		1.73e7	1.92e7	inactive

Additional reagents:
gene	reagent no.	calcium entry signal, replicate 1 (fluorescence units)	calcium entry signal, replicate 2 (fluorescence units)	entry to resting ratio	resting calcium signal, replicate 1 (fluorescence units)	resting calcium signal, replicate 2 (fluorescence units)	activity call
Oatp33Eb	1	4.16e7	2.90e7		1.81e7	1.37e7	inactive
CG6168	1	2.66e7	4.80e7		1.41e7	1.98e7	inactive
Cyp6d2	1	3.32e7	5.26e7		1.81e7	2.63e7	inactive
CG9286	1	2.49e7	3.24e7		1.27e7	1.62e7	inactive
CG4781	1	4.59e7	4.26e7		2.20e7	1.92e7	inactive
tim	1	3.90e7			2.44e7		inactive
Sse	1	2.63e7	1.96e7		2.23e7	1.06e7	inactive
CG17508	1	2.96e7	3.85e7		1.49e7	1.69e7	inactive
unc-13-4A	1	2.56e7	3.67e7		1.27e7	1.78e7	inactive
unc-13-4A	2	2.50e7	3.66e7		1.21e7	1.70e7	inactive
unc-13-4A	3	1.43e7	1.93e7		9.59e6	1.28e7	inactive
unc-13-4A	4	2.69e7	3.95e7		1.21e7	1.73e7	inactive
